PubChem BioAssay AID1053208 | Peter MacCallum Cancer Centre – 2014
Shown is a random part of about 17,000 deposited reagents. Of all reagents, 788 (4.7%) were called active. 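Calls rest on z-score classes alone; an extra cut-off of viability at most 70% of control was not applied to them.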 Unmarked entries are inactive.

- Test: 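Find knock-downs that sensitise mouse osteosarcoma cells to doxorubicin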 (primary screen)
- Cell system: mouse osteosarcoma cells, early-passage culture from an engineered mouse model of fibroblastic bone tumour
- Knock-down reagent: siRNA pool against mouse genes, 40 nM
- Time to read-out: about 120 h (48 h before drug, then 72 h with drug)
- Treatment: doxorubicin 100 nM for 72 h, roughly 30-40% inhibitory dose
- Measurement: 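Viability read as ATP luminescence after 72 h of 100 nM doxorubicin or none, duplicate wells averaged, scaled to non-targeting siRNA, then expressed as robust z-scores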
- Reading the numbers: viability z-score with doxorubicin and doxorubicin viability vs non-targeting: higher = more viable cells under doxorubicin; viability z-score without drug: higher = more viable cells with knock-down alone; z-score of drug to no-drug ratio: higher = less drug sensitisation by knock-down
- Active means: 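a pool counts as active when its viability z-score with doxorubicin is -2 or below and its z-score without drug lies between -2 and 2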

| gene | PubChem SID | combined z-score class | viability z-score with doxorubicin | viability z-score without drug | z-score of drug to no-drug ratio | doxorubicin viability vs non-targeting |
| --- | --- | --- | --- | --- | --- | --- |
| Psg19 (pregnancy specific beta-1-glycoprotein 19) | SID152327687 | no change with or without drug | -0.45 | -1.01 | 0.34 | 0.9 |
| Prx (periaxin) | SID152269560 | no change with or without drug | 0.9 | -0.51 | 1.46 | 1.02 |
| Dnaaf4 (dynein axonemal assembly factor 4) | SID152342140 | no change with or without drug | -1.12 | 1.18 | -1.8 | 0.84 |
| Gsc2 (goosecoid homebox 2) | SID152292963 | no change with or without drug | -0.9 | -0.34 | -0.67 | 0.86 |
| Sun5 (Sad1 and UNC84 domain containing 5) | SID152280813 | no change with or without drug | 0.67 | -0.51 | 1.24 | 1 |
| Amd2 (S-adenosylmethionine decarboxylase 2) | SID152333862 | no change with or without drug | 0.22 | 0.34 | 0.11 | 0.96 |
| Fbxo28 (F-box protein 28) | SID152305241 | no change with or without drug | -0.45 | -0.17 | -0.22 | 0.9 |
| Btbd1 (BTB domain containing 1) | SID152274101 | no change with or without drug | 1.12 | 0.84 | 0.67 | 1.04 |
| Dimt1 (DIM1 rRNA methyltransferase and ribosome maturation factor) | SID152317039 | no change with or without drug | -0.45 | 1.18 | -1.12 | 0.9 |
| Jmjd4 (jumonji domain containing 4) | SID152303799 | no change with or without drug | -0.22 | -1.18 | 0.79 | 0.92 |
| Krtap12-1 (keratin associated protein 12-1) | SID152340785 | no change with or without drug | -1.12 | -1.18 | -0.34 | 0.84 |
| 2010106E10Rik (RIKEN cDNA 2010106E10 gene) | SID152336299 | no change with or without drug | -0.22 | 0.34 | -0.34 | 0.92 |
| Pspn (persephin) | SID152267987 | no change with or without drug | -0.56 | -0.51 | -0.11 | 0.89 |
| Tspan13 (tetraspanin 13) | SID152321889 | high cell count without drug only | 0 | 2.53 | -1.46 | 0.94 |
| Abca9 (ATP-binding cassette, sub-family A member 9) | SID152295789 | no change with or without drug | 0.11 | -0.34 | 0.45 | 0.95 |
| Or5e1 (olfactory receptor family 5 subfamily E member 1) | SID152309744 | no change with or without drug | -0.9 | -0.84 | -0.22 | 0.86 |
| Cptp (ceramide-1-phosphate transfer protein) | SID152260246 | no change with or without drug | -0.9 | -0.51 | -0.56 | 0.86 |

Continued, starting with the last 2 of the part before.
| gene | PubChem SID | combined z-score class | viability z-score with doxorubicin | viability z-score without drug | z-score of drug to no-drug ratio | doxorubicin viability vs non-targeting |
| --- | --- | --- | --- | --- | --- | --- |
| Or5e1 (olfactory receptor family 5 subfamily E member 1) | SID152309744 | no change with or without drug | -0.9 | -0.84 | -0.22 | 0.86 |
| Cptp (ceramide-1-phosphate transfer protein) | SID152260246 | no change with or without drug | -0.9 | -0.51 | -0.56 | 0.86 |
| Ephx1 (epoxide hydrolase 1, microsomal) | SID152295115 | no change with or without drug | 0.45 | -0.84 | 1.24 | 0.98 |
| Creb3l3 (cAMP responsive element binding protein 3-like 3) | SID152314627 | no change with or without drug | -0.67 | 1.01 | -1.24 | 0.88 |
| Mtbp (MDM2 binding protein) | SID152278310 | no change with or without drug | 1.91 | 0.51 | 1.69 | 1.11 |
| Or56a3b (olfactory receptor family 56 subfamily A member 3B) | SID152317812 | no change with or without drug | 0 | 0 | 0.11 | 0.94 |
| Cdh20 (cadherin 20) | SID152337612 | no change with or without drug | -0.22 | 1.52 | -1.12 | 0.92 |
| Prpf4 (pre-mRNA processing factor 4) | SID152290192 | no change with or without drug | -0.22 | 0.17 | -0.22 | 0.92 |
| Prss42 (serine protease 42) | SID152336287 | no change with or without drug | -0.56 | -1.01 | 0.22 | 0.89 |
| Or52a33 (olfactory receptor family 52 subfamily A member 33) | SID152305906 | no change with or without drug | -0.22 | 0.34 | -0.34 | 0.92 |
| Nenf (neuron derived neurotrophic factor) | SID152263365 | no change with or without drug | -0.67 | 1.35 | -1.46 | 0.88 |
| Nlgn1 (neuroligin 1) | SID152280454 | no change with or without drug | 0.45 | 0.84 | 0 | 0.98 |
| Mad2l1bp (MAD2L1 binding protein) | SID152299984 | no change with or without drug | 0.45 | 0.84 | 0 | 0.98 |
| Fam199x (family with sequence similarity 199, X-linked) | SID152267381 | no change with or without drug | 1.69 | 0 | 1.91 | 1.09 |
| D630029K05Rik (RIKEN cDNA D630029K05 gene) | SID152262464 | no change with or without drug | 0 | 0.17 | 0 | 0.94 |
| Cers5 (ceramide synthase 5) | SID152282360 | no change with or without drug | -0.45 | 0.51 | -0.67 | 0.9 |
| Mrpl24 (mitochondrial ribosomal protein L24) | SID152278073 | low cell count with and without drug | -2.14 | -2.19 | -0.79 | 0.75 |
| H1f10 (H1.10 linker histone) | SID152321199 | no change with or without drug | 0 | -0.51 | 0.45 | 0.94 |
| Eno3 (enolase 3, beta muscle) | SID152269223 | no change with or without drug | -0.45 | -0.84 | 0.22 | 0.9 |
| Paf1 (Paf1, RNA polymerase II complex component) | SID152272382 | low cell count with doxorubicin only (active) | -2.25 | 1.18 | -2.81 | 0.74 |
| Btd (biotinidase) | SID152335584 | no change with or without drug | 0.56 | 0.84 | 0.11 | 0.99 |
| Klhl11 (kelch-like 11) | SID152332947 | low cell count with doxorubicin only (active) | -2.02 | 1.01 | -2.59 | 0.76 |
| Zfp513 (zinc finger protein 513) | SID152272556 | no change with or without drug | 0.34 | 0.51 | 0.11 | 0.97 |
| Fam216b (family with sequence similarity 216, member B) | SID152274666 | no change with or without drug | -0.45 | 0.17 | -0.45 | 0.9 |
| Kif20b (kinesin family member 20B) | SID152301237 | high cell count with doxorubicin only | 2.25 | 1.01 | 1.69 | 1.14 |
| Afap1l1 (actin filament associated protein 1-like 1) | SID152280478 | low cell count with doxorubicin only (active) | -4.38 | 0.67 | -4.72 | 0.55 |
| B3gat3 (beta-1,3-glucuronyltransferase 3) | SID152281597 | no change with or without drug | 0.34 | 1.18 | -0.34 | 0.97 |
| Cep68 (centrosomal protein 68) | SID152325081 | no change with or without drug | -0.45 | -1.52 | 0.79 | 0.9 |
| Ptpn7 (protein tyrosine phosphatase, non-receptor type 7) | SID152341806 | no change with or without drug | 1.01 | 0.34 | 0.9 | 1.03 |
| Exoc5 (exocyst complex component 5) | SID152324017 | no change with or without drug | -1.24 | -1.52 | -0.11 | 0.83 |
| Celf2 (CUGBP, Elav-like family member 2) | SID152292759 | low cell count with doxorubicin only (active) | -4.27 | -0.17 | -4.27 | 0.56 |
| Celf2 (CUGBP, Elav-like family member 2) | SID152333622 | no change with or without drug | 0.11 | -0.17 | 0.34 | 0.95 |
| Rbfa (ribosome binding factor A) | SID152277729 | no change with or without drug | 0.11 | -1.35 | 1.24 | 0.95 |
| Ptbp3 (polypyrimidine tract binding protein 3) | SID152306585 | no change with or without drug | -1.12 | -1.01 | -0.45 | 0.84 |
| Chmp2a (charged multivesicular body protein 2A) | SID152290789 | low cell count with and without drug | -8.32 | -8.43 | -6.07 | 0.2 |
